From patent US20240390508A1, “HUMAN TRANSFERRIN RECEPTOR BINDING PEPTIDE-DRUG CONJUGATE” (priority 2021, published 2024)
For at least one compound, name, drawing or mass did not settle the structure.

Sequences of proteins named here, by UniProt entry; tags and fusion partners are left off.
UniProt P02786, whole entry: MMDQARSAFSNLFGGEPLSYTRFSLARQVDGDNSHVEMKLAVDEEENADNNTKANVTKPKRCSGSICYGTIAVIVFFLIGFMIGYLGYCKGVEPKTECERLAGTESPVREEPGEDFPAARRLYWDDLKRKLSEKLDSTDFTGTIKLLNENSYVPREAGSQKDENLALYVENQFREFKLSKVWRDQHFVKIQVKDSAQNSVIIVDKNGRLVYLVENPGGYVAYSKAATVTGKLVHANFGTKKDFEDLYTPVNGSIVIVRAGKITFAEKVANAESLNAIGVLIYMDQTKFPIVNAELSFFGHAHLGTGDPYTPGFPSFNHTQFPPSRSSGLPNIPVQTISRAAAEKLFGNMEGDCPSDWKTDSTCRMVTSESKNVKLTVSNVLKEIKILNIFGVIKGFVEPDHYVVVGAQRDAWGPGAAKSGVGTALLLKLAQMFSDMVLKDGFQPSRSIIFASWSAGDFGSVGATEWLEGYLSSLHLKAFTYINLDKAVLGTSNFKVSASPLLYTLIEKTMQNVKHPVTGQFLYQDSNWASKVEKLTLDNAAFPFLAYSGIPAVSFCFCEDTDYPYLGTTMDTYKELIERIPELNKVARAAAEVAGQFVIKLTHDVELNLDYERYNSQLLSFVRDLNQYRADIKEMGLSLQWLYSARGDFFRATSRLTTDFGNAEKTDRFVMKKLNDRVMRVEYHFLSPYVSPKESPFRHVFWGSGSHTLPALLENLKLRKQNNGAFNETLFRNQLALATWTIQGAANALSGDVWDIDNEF

Each compound was assayed against transferrin receptor (hTfR) (Homo sapiens, UniProt P02786) (assay: Intermolecular interaction evaluation test between transferrin receptor (hTfR) and peptide-nucleic acid conjugate using surface plasmon resonance (SPR)). Details: KD value to hTfR by SPR, Biacore T200, Single Cycle Kinetics, hTfR immobilized on NTA sensor chip.
Assay type: binding

Structure (SMILES)	Kd [nM]
CC[C@H](C)[C@@H]1NC(=O)[C@H](Cc2ccc(O)cc2)NC(=O)[C@H](Cc2ccc(O)cc2)NC(=O)[C@H](CC(N)=O)NC(=O)[C@H](Cc2c[nH]c3ccccc23)NC(=O)[C@H](C(C)C)NC(=O)[C@H](Cc2ccccc2)N(C)C(=O)[C@H](C(C)C)NC(=O)[C@H](C)NC(=O)CSC[C@@H](C(=O)NCC(=O)N[C@@H](CCCCn2nnc3c2CCC2C(CC3)C2COC(=O)NCCCCCCOP(=O)(O)OC[C@H]2O[C@@H](n3cnc4c(=O)[nH]c(N)nc43)[C@H](OC)[C@@H]2OP(=O)(S)OC[C@H]2O[C@@H](n3cnc4c(N)ncnc43)[C@H](OC)[C@@H]2OP(=O)(S)OC[C@H]2O[C@@H](n3cnc4c(N)ncnc43)[C@H](OC)[C@@H]2OP(=O)(S)OC[C@H]2O[C@@H](n3ccc(N)nc3=O)C[C@@H]2OP(=O)(O)OC[C@H]2O[C@@H](n3cnc4c(N)ncnc43)C[C@@H]2OP(=O)(O)OC[C@H]2O[C@@H](n3ccc(N)nc3=O)[C@H](O)[C@@H]2OP(=O)(O)OC[C@H]2O[C@@H](n3ccc(N)nc3=O)[C@H](OC)[C@@H]2OP(=O)(O)OC[C@H]2O[C@@H](n3cc(C)c(=O)[nH]c3=O)C[C@@H]2OP(=O)(O)OC[C@H]2O[C@@H](n3ccc(=O)[nH]c3=O)[C@H](O)[C@@H]2OP(=O)(O)OC[C@H]2O[C@@H](n3ccc(N)nc3=O)C[C@@H]2OP(=O)(O)OC[C@H]2O[C@@H](n3cnc4c(N)ncnc43)C[C@@H]2OP(=O)(O)OC[C@H]2O[C@@H](n3cnc4c(=O)[nH]c(N)nc43)C[C@@H]2OP(=O)(O)OC[C@H]2O[C@@H](n3cnc4c(N)ncnc43)C[C@@H]2OP(=O)(S)OC[C@H]2O[C@@H](n3cnc4c(N)ncnc43)[C@H](OC)[C@@H]2OP(=O)(S)OC[C@H]2O[C@@H](n3ccc(N)nc3=O)[C@H](OC)[C@@H]2OP(=O)(S)OC[C@H]2O[C@@H](n3ccc(N)nc3=O)[C@H](OC)[C@@H]2O)C(N)=O)NC(=O)[C@H](Cc2ccc(O)cc2)N(C)C(=O)[C@H](Cc2ccc(O)cc2)NC(=O)[C@H](CCCNC(=N)N)NC(=O)[C@H](CCCNC(=N)N)NC(=O)[C@H]([C@@H](C)CC)NC1=O (stereo partly shown) [Example 28]	< 100
CC[C@H](C)[C@@H]1NC(=O)[C@H](Cc2ccc(O)cc2)NC(=O)[C@H](Cc2ccc(O)cc2)NC(=O)[C@H](CC(N)=O)NC(=O)[C@H](Cc2c[nH]c3ccccc23)NC(=O)[C@H](C(C)C)NC(=O)[C@H](Cc2ccccc2)N(C)C(=O)[C@H](C(C)C)NC(=O)[C@H](C)NC(=O)CSC[C@@H](C(=O)NCC(=O)N[C@@H](CCCCn2nnc3c2CCC2C(CC3)C2COC(=O)NCCCCCCOP(=O)(O)OC[C@@]23CN(C)O[C@@H]([C@H](n4cnc5c(=O)[nH]c(N)nc54)O2)[C@@H]3OP(=O)(S)OC[C@@]23CN(C)O[C@@H]([C@H](n4cnc5c(N)ncnc54)O2)[C@@H]3OP(=O)(S)OC[C@@]23CN(C)O[C@@H]([C@H](n4cnc5c(N)ncnc54)O2)[C@@H]3OP(=O)(S)OC[C@H]2O[C@@H](n3ccc(N)nc3=O)[C@H](O)[C@@H]2OP(=O)(O)OC[C@H]2O[C@@H](n3cnc4c(N)ncnc43)[C@H](O)[C@@H]2OP(=O)(O)OC[C@H]2O[C@@H](n3ccc(N)nc3=O)[C@H](O)[C@@H]2OP(=O)(O)OC[C@H]2O[C@@H](n3ccc(N)nc3=O)[C@H](O)[C@@H]2OP(=O)(O)OC[C@H]2O[C@@H](n3ccc(=O)[nH]c3=O)[C@H](O)[C@@H]2OP(=O)(O)OC[C@H]2O[C@@H](n3ccc(=O)[nH]c3=O)[C@H](O)[C@@H]2OP(=O)(O)OC[C@H]2O[C@@H](n3ccc(N)nc3=O)[C@H](O)[C@@H]2OP(=O)(O)OC[C@H]2O[C@@H](n3cnc4c(N)ncnc43)[C@H](O)[C@@H]2OP(=O)(O)OC[C@H]2O[C@@H](n3cnc4c(=O)[nH]c(N)nc43)[C@H](O)[C@@H]2OP(=O)(O)OC[C@H]2O[C@@H](n3cnc4c(N)ncnc43)[C@H](O)[C@@H]2OP(=O)(S)OC[C@@]23CN(C)O[C@@H]([C@H](n4cnc5c(N)ncnc54)O2)[C@@H]3OP(=O)(S)OC[C@@]23CN(C)O[C@@H]([C@H](n4cc(C)c(N)nc4=O)O2)[C@@H]3OP(=O)(S)OC[C@@]23CN(C)O[C@@H]([C@H](n4cc(C)c(N)nc4=O)O2)[C@@H]3O)C(N)=O)NC(=O)[C@H](Cc2ccc(O)cc2)N(C)C(=O)[C@H](Cc2ccc(O)cc2)NC(=O)[C@H](CCCNC(=N)N)NC(=O)[C@H](CCCNC(=N)N)NC(=O)[C@H]([C@@H](C)CC)NC1=O (stereo partly shown) [Example 29]	< 100
CC[C@H](C)[C@@H]1NC(=O)[C@H](Cc2ccc(O)cc2)NC(=O)[C@H](Cc2ccc(O)cc2)NC(=O)[C@H](CC(N)=O)NC(=O)[C@H](Cc2c[nH]c3ccccc23)NC(=O)[C@H](C(C)C)NC(=O)[C@H](Cc2ccccc2)N(C)C(=O)[C@H](C(C)C)NC(=O)[C@H](C)NC(=O)CSC[C@@H](C(=O)NCC(=O)N[C@@H](CCCCn2nnc3c2CCC2C(CC3)C2COC(=O)NCCCCCCOP(=O)(O)OC[C@@]23CN(C)O[C@@H]([C@H](n4cnc5c(=O)[nH]c(N)nc54)O2)[C@@H]3OP(=O)(S)OC[C@@]23CN(C)O[C@@H]([C@H](n4cnc5c(N)ncnc54)O2)[C@@H]3OP(=O)(S)OC[C@@]23CN(C)O[C@@H]([C@H](n4cnc5c(N)ncnc54)O2)[C@@H]3OP(=O)(S)OC[C@H]2O[C@@H](n3ccc(N)nc3=O)C[C@@H]2OP(=O)(O)OC[C@H]2O[C@@H](n3cnc4c(N)ncnc43)[C@H](O)[C@@H]2OP(=O)(O)OC[C@H]2O[C@@H](n3ccc(N)nc3=O)C[C@@H]2OP(=O)(O)OC[C@H]2O[C@@H](n3ccc(N)nc3=O)C[C@@H]2OP(=O)(O)OC[C@H]2O[C@@H](n3cc(C)c(=O)[nH]c3=O)C[C@@H]2OP(=O)(O)OC[C@H]2O[C@@H](n3cc(C)c(=O)[nH]c3=O)C[C@@H]2OP(=O)(O)OC[C@H]2O[C@@H](n3ccc(N)nc3=O)C[C@@H]2OP(=O)(O)OC[C@H]2O[C@@H](n3cnc4c(N)ncnc43)[C@H](O)[C@@H]2OP(=O)(O)OC[C@H]2O[C@@H](n3cnc4c(=O)[nH]c(N)nc43)[C@H](O)[C@@H]2OP(=O)(O)OC[C@H]2O[C@@H](n3cnc4c(N)ncnc43)[C@H](O)[C@@H]2OP(=O)(S)OC[C@@]23CN(C)O[C@@H]([C@H](n4cnc5c(N)ncnc54)O2)[C@@H]3OP(=O)(S)OC[C@@]23CN(C)O[C@@H]([C@H](n4cc(C)c(N)nc4=O)O2)[C@@H]3OP(=O)(S)OC[C@@]23CN(C)O[C@@H]([C@H](n4cc(C)c(N)nc4=O)O2)[C@@H]3O)C(N)=O)NC(=O)[C@H](Cc2ccc(O)cc2)N(C)C(=O)[C@H](Cc2ccc(O)cc2)NC(=O)[C@H](CCCNC(=N)N)NC(=O)[C@H](CCCNC(=N)N)NC(=O)[C@H]([C@@H](C)CC)NC1=O (stereo partly shown) [Example 30]	< 100
CC[C@H](C)[C@@H]1NC(=O)[C@H](Cc2ccc(O)cc2)NC(=O)[C@H](Cc2ccc(O)cc2)NC(=O)[C@H](CC(N)=O)NC(=O)[C@H](Cc2c[nH]c3ccccc23)NC(=O)[C@H](C(C)C)NC(=O)[C@H](Cc2ccccc2)N(C)C(=O)[C@H](C(C)C)NC(=O)[C@H](C)NC(=O)CSC[C@@H](C(=O)NCC(=O)N[C@@H](CCCCn2nnc3c2CCC2C(CC3)C2COC(=O)NCCCCCCOP(=O)(O)OC[C@@]23CN(C)O[C@@H]([C@H](n4cnc5c(=O)[nH]c(N)nc54)O2)[C@@H]3OP(=O)(S)OC[C@@]23CN(C)O[C@@H]([C@H](n4cnc5c(N)ncnc54)O2)[C@@H]3OP(=O)(S)OC[C@@]23CN(C)O[C@@H]([C@H](n4cnc5c(N)ncnc54)O2)[C@@H]3OP(=O)(S)OC[C@H]2O[C@@H](n3ccc(N)nc3=O)C[C@@H]2OP(=O)(O)OC[C@H]2O[C@@H](n3cnc4c(N)ncnc43)C[C@@H]2OP(=O)(O)OC[C@H]2O[C@@H](n3ccc(N)nc3=O)[C@H](O)[C@@H]2OP(=O)(O)OC[C@H]2O[C@@H](n3ccc(N)nc3=O)[C@H](OC)[C@@H]2OP(=O)(O)OC[C@H]2O[C@@H](n3cc(C)c(=O)[nH]c3=O)C[C@@H]2OP(=O)(O)OC[C@H]2O[C@@H](n3ccc(=O)[nH]c3=O)[C@H](O)[C@@H]2OP(=O)(O)OC[C@H]2O[C@@H](n3ccc(N)nc3=O)C[C@@H]2OP(=O)(O)OC[C@H]2O[C@@H](n3cnc4c(N)ncnc43)C[C@@H]2OP(=O)(O)OC[C@H]2O[C@@H](n3cnc4c(=O)[nH]c(N)nc43)C[C@@H]2OP(=O)(O)OC[C@H]2O[C@@H](n3cnc4c(N)ncnc43)C[C@@H]2OP(=O)(S)OC[C@@]23CN(C)O[C@@H]([C@H](n4cnc5c(N)ncnc54)O2)[C@@H]3OP(=O)(S)OC[C@@]23CN(C)O[C@@H]([C@H](n4cc(C)c(N)nc4=O)O2)[C@@H]3OP(=O)(S)OC[C@@]23CN(C)O[C@@H]([C@H](n4cc(C)c(N)nc4=O)O2)[C@@H]3O)C(N)=O)NC(=O)[C@H](Cc2ccc(O)cc2)N(C)C(=O)[C@H](Cc2ccc(O)cc2)NC(=O)[C@H](CCCNC(=N)N)NC(=O)[C@H](CCCNC(=N)N)NC(=O)[C@H]([C@@H](C)CC)NC1=O (stereo partly shown) [Example 31]	< 100
